# Experimental data from PubChem BioAssay (EPA / NIEHS).
# Amino acid sequences for entries named in this document (tags omitted). A change or cut given only in a name is not applied to a line headed by its entry.
# UniProt P04150: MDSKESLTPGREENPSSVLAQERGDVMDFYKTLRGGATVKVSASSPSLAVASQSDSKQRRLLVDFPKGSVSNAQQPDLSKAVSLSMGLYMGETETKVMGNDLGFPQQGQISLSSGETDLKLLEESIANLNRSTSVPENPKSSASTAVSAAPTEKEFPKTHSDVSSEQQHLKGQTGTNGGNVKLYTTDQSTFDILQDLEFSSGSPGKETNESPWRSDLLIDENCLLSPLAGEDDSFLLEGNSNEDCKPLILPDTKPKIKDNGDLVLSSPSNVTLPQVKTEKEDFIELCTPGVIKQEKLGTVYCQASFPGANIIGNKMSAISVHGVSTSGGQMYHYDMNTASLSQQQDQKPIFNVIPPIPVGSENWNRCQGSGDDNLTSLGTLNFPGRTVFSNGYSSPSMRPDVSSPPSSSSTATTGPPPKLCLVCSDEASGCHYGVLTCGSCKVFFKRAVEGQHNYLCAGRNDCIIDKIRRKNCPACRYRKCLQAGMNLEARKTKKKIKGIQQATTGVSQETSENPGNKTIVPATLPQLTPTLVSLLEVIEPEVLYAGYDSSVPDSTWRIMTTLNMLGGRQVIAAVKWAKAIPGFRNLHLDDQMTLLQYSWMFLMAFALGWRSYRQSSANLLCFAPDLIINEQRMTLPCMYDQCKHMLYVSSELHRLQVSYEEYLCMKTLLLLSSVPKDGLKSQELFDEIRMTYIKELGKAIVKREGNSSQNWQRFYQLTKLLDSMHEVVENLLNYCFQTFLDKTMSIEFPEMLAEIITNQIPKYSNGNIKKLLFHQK
# This list was built around the results that the source calls inconclusive (neither active nor inactive); the mix of calls is not that of the screen. A potency beside an inconclusive call is a rough fit, not a confirmed value. Active and inactive are the calls of the source. How the source made its calls: active means hit-call score of the fitted dose curve at least 0.9, where 1 is the maximum; inconclusive means response in the unintended direction; inactive means score below 0.9.
# Target: Glucocorticoid receptor (Homo sapiens) (UniProt P04150)
# Assay: ATG_GR_TRANS: Attagene TRANS-FACTORIAL HepG2 Assay for human Glucocorticoid Receptor (GR) (AID 2282978);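 further: activators score as hits since higher reporter transcript over DMSO is fitted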
# Details: HepG2 Attagene TRANS GR reporter, mRNA transcription
# Description: ATG_TRANS is a cell-based, multiplexed-readout assay that uses HepG2, a human liver cell line, with measurements taken at 24 hours after chemical dosing in a 24-well plate.ATG_GR_TRANS is one of 30 assay component(s) measured or calculated from the ATG_TRANS assay. It is designed to make measurements of mRNA induction, a form of inducible reporter, as detected with fluorescence intensity signals by Reverse transcription polymerase chain reaction (RT-PCR) and Capillary electrophoresis technology.Data from the assay component ATG_GR_TRANS was analyzed into 1 assay endpoint. This assay endpoint, ATG_GR_TRANS, was analyzed in the positive analysis fitting direction relative to DMSO as the negative control and baseline of activity. Using a type of inducible reporter, measures of mRNA for gain-of-signal activity can be used to understand the reporter gene at the transcription factor-level as they relate to the gene NR3C1. Furthermore, this assay endpoint can be referred to as a primary readout, because this assay has produced multiple assay endpoints where this one serves a reporter gene function. To generalize the intended target to other relatable targets, this assay endpoint is annotated to the nuclear receptor intended target family, where the subfamily is steroidal.
# Human liver HepG2 cells are transiently transfected with multiple reporter transcription units (MRTUs) in 6-well plates using FuGene 6 reagent (Roche; 3 ml FuGene/1 mg DNA). The MRTU constructs are regulated by a cis-regulating element (promoter). […] A major difference between the CIS and TRANS system is that in CIS activities of endogenous TFs are measured, whereas the TRANS assay evaluates changes in activities of exogenous, chimeric NR-Gal4 proteins. […] At the end of 24 hour incubation, total RNA was isolated using TriZol reagent (Invitrogen). The isolated RNA is then reverse-transcribed using oligo(dT) primer and Mo-MLV reverse transcriptase (Invitrogen) with DNAse I (Ambion) treatment for 30 min. The one-tenth of the produced cDNA was amplified by PCR using Taq DNA polymerase (Invitrogen) and two reporter sequence-specific primers. The PCR products were fluorescently labeled by primer extension with 6-arboxyfluorescein (6-FAM) 5'-labeled reporter sequence-specific primer (2 min at 95 C, 20 s at 68 C and 10 min at 72 C) and these products were digested with 5U of HpaI (New England Biolabs) for 2h at 37 C. The fragments were purified using Qiaquick PCR columns (Qiagen), analyzed on an ABI 3130xL genetic analyzer (Applied Biosystems) with peak positions identified by using a set of X-rhodamine (ROX)-labeled MapMarker1000 molecular weight standards (BioVentures). The raw capillary electrophoresis data was processed using Attagraph software (Attagene).
SMILES,outcome,AC50
CSc1ccc(Cl)cc1,inactive,–
NS(=O)(=O)O,–,inconclusive: 0.331 µM
CC(CC(C)C)=NO,–,inconclusive: 0.0823 µM
COc1ccc(N=Nc2cc(C)c(N=Nc3ccc(S(=O)(=O)O)cc3)cc2OC)cc1,–,inconclusive: 0.188 µM
CC(C)COC(=O)CC(C(=O)OCC(C)C)S(=O)(=O)O (stereo not given),–,inconclusive: 23.9 µM
[Na+],–,inconclusive: 0.47 µM
Cc1ccc(C(=O)c2cc(O)c(O)c([N+](=O)[O-])c2)cc1,–,active: 144 µM
CCCCCCCCCCN,inactive,–
Nc1nnc(-c2ccc([N+](=O)[O-])o2)o1,–,inconclusive: 100 µM
C=C(C)C(=O)OCC1CCCO1 (stereo not given),inactive,–
Cc1ccc(O)c(C(C)(C)C)c1,–,inconclusive: 59.6 µM
CC1=CC[C@@]23C[C@@H]1C(C)(C)[C@@H]2CC[C@H]3C,inactive,–

SMILES,outcome,AC50
CC(=O)O[C@]1(C(C)=O)CC[C@H]2[C@@H]3C[C@H](C)C4=CC(=O)CC[C@]4(C)[C@H]3CC[C@@]21C,–,active: 0.354 µM
O=C(C1CCCCC1)N1CC(=O)N2CCc3ccccc3C2C1 (stereo not given),inactive,–
CCc1ccc(O)cc1,inactive,–
CCCSc1ccc2nc(NC(=O)OC)[nH]c2c1,inactive,–
OCC(O)CC(F)(F)C(F)(F)C(F)(F)C(F)(F)F (stereo not given),inactive,–
CC1CCC(=O)C1=O (stereo not given),inactive,–
Nc1nc2ncc(CNc3ccc(C(=O)N[C@@H](CCC(=O)O)C(=O)O)cc3)nc2c(=O)[nH]1,inactive,–
CC1CC(O)CC(C)(C)C1 (stereo not given),–,inconclusive: 23.6 µM
CC(C)(C)C(=O)C=Cc1ccc(Cl)cc1,–,inconclusive: 100 µM
CCCCCC(C=O)=Cc1ccccc1,–,inconclusive: 100 µM
COC(=O)C(F)(F)C(F)(F)C(F)(F)C(F)(F)C(F)(F)F,–,inconclusive: 150 µM
CCCCCCCCN1CCCC1=O,inactive,–
O=C(O)c1snc(Cl)c1Cl,–,inconclusive: 100 µM
CCCCC(CC)COC(=O)c1ccc(N(C)C)cc1 (stereo not given),inactive,–

# Rewritten with tabs: entries from further up
SMILES	outcome	AC50
O=C(C1CCCCC1)N1CC(=O)N2CCc3ccccc3C2C1 (stereo not given)	inactive	–
CCc1ccc(O)cc1	inactive	–
